Results on 50 compounds are retold here after PMC12040169 (PLOS Biology, 2025).

Some of the results follow.

The assay has as its system T1, CTL2-GFP (C. trachomatis L2/434/Bu, GFP-expressing).
T1 construct: L2/434/Bu, GFP-expressing
On the set-up: species or system HeLa; Intracellular C. trachomatis growth in HeLa cells, bulk GFP fluorescence relative to DMSO. Conditions: bulk GFP, single well; 28.5 h, 10 µM; inhibitor.
For the compound `COCCn1c(SCc2ccc([N+](=O)[O-])cc2)nnc1-c1ccccc1` [CBK265937], the “% of control remaining” value was determined as 136.726%.

For `COC(=O)c1ccccc1NC(=O)c1cc2nc(-c3cccs3)cc(C(F)(F)F)n2n1` [CBK262524], the “% of control remaining” value is 119.654%.

Turning to `O=C(NC(c1ccccc1)c1cccnc1)C1CCN(C(=O)NC2CCCCC2)CC1` (centres unmarked) [CBK060378], the “% of control remaining” value is given as 152.86%. As for `CCOC(=O)C1CCCN(Cc2cccc(Cl)c2Cl)C1` (centres unmarked) [CBK307056], the figure is 121.23%. As for `C(=N\c1nc2ccccc2n1CCN1CCOCC1)/c1ccc2c(c1)OCO2` [CBK262270], the figure is 101.199%; as for `CNC(=O)Nc1cc(C(O)(C(F)(F)F)C(F)(F)F)ccc1C` [CBK006970], 95.6753%; as for `Cc1ccc(S(=O)(=O)CC(=O)N2CCC3(CCN(C(=O)Cc4c[nH]c5ccccc45)C3)C2)cc1` (centres unmarked) [CBK131443], 129.316%. As for `O=c1cc(Cn2ccnc2)c2cc3c(cc2o1)CCC3` [CBK287813], the figure is 120.576%.

Take `C=C(C)CN1CCN(C(C(=O)O)c2c[nH]c3ccc(OCc4ccccc4)cc23)CC1` (centres unmarked) [CBK286668]: the “% of control remaining” value was found to be 148.334%. As for `Nc1ncc(-c2cccnc2)nc1-c1ccc(C(=O)N2CCOCC2)cc1` [CBK064059], the figure is 189.824%. As for `CC(=O)N(C)c1nc(-c2ccccc2)ccc1C(=O)NCc1ccco1` [CBK106334], the figure is 109.536%. As for `Fc1ccc(CNc2c(-c3cccs3)nc3cnccn23)cc1` [CBK283487], the figure is 88.1967%; as for `Cn1nc([N+](=O)[O-])nc1OCc1nc2ccccc2n1C` [CBK265247], 119.502%; as for `COc1cc(-c2nccnc2N[C@@H](CO)C(C)C)cc(OC)c1OC` [CBK038023], 106.688%. Consider `COc1nccnc1N1CCN(Cc2ccccc2)CC1` [CBK084210], for which the “% of control remaining” value is recorded as 112.176%. As for `COc1ccc(C)cc1-n1ccc(C(=O)NCC2(C)CCCS2)n1` (centres unmarked) [CBK305355], the figure is 117.914%; as for `O=C(COc1ccc(Cl)cc1Br)N1CCCCCC1` [CBK058661], 116.932%.

Turning to `COc1ccc(NC(=O)C(OC)c2ccccc2)cc1Cl` (centres unmarked) [CBK264098], the “% of control remaining” value was found to be 140.656%. As for `Cc1noc(C)c1CCC(=O)N1CC[C@H]2NC(=O)COc3ccccc3C/C=C/C[C@H]2C1` [CBK292115], the figure is 100.49%; as for `O=C1S/C(=C\c2ccc(O)c([N+](=O)[O-])c2)C(=O)N1Cc1ccc(Cl)cc1` [CBK102929], 103.032%. Consider `Nc1ncc(-c2cccc3cccnc23)nc1NC1CCCCC1` [CBK063613], for which the “% of control remaining” value is listed as 104.489%. As for `O=C(CSCc1ccc([N+](=O)[O-])cc1)Nc1c[nH]c(=O)[nH]c1=O` [CBK268549], the figure is 115.157%. With `Cc1cccc(NC(=S)NCCc2ccc(S(N)(=O)=O)cc2)c1C` [CBK264889], the “% of control remaining” value was 100%. For `CCOc1cccc(-c2cncc(N[C@H](C)c3ccccc3)n2)c1` [CBK066042], the “% of control remaining” value is listed as 100.264%. As for `CC(Oc1ccc(Cl)cc1Cl)C(=O)Nc1sc2c(c1C(N)=O)CCCCCC2` (centres unmarked) [CBK265394], the figure is 126.478%; as for `CCOC(=O)C1CSCCN1C(=O)c1cnn(-c2ccc(Br)cc2)c1C` (centres unmarked) [CBK304550], 99.7081%; as for `Nc1ncc2ncn([C@H]3C[C@@H](O)[C@@H](CO)O3)c2n1` [CBK201303], 117.602%.

For `O=C(COc1ccc(F)cc1)N1CCCC1c1cccc(Cc2ccccc2)n1` (centres unmarked) [CBK286214], the “% of control remaining” value was 93.9854%. For the compound `CCN1C(=O)C2(CC(=O)N(CCCCC(C)C)C2=O)c2cc(C)ccc21` (centres unmarked) [CBK075173], the “% of control remaining” value is 110.242%. As for `CS(=O)(=O)c1ccc(-c2nc(N)cc3ccccc23)cc1` [CBK085724], the figure is 121.407%; as for `Cc1cccc(C)c1OCC(=O)Nc1ccccc1C(=O)N1CCOCC1` [CBK270096], 110.06%. As for `Cc1cc(Cl)ccc1NC(=O)CN1CCN(Cc2ccccc2)CC1` [CBK269438], the figure is 100.761%; as for `Cc1cc(CNC(=O)C2(c3ccccc3)CCCC2)no1` [CBK149518], 117.682%; as for `O=C(CCCn1ccnc1)NCC1(c2cccc(F)c2)CCCC1` [CBK281500], 120.9%. As for `Cn1ccnc1C1(O)CC2CCC(C1)N2C(=O)c1ccc(Cl)cc1` (centres unmarked) [CBK284087], the figure is 110.396%; as for `O=C(O)CCC(=O)NCC1(c2ccccc2)CCCC1` [CBK286679], 139.203%. In the case of `Cc1nc2c(c(=O)[nH]1)CC[C@@H]1CN(C(=O)Cc3ccsc3)C[C@H]21` [CBK284411], the “% of control remaining” value came out at 99.5011%. As for `O=C(N/N=C/C=C/c1ccc([N+](=O)[O-])cc1)C(O)c1ccccc1` (centres unmarked) [CBK261373], the figure is 100%. As for `CC(C)(c1ccccc1)c1ccc(OCCCCn2cncn2)cc1` [CBK266405], the figure is 109.812%; as for `COc1ccc(OCc2nc3ccccc3[nH]2)cc1` [CBK261030], 101.571%. As for `Cc1cccc(C)c1NC(=O)CN1CCCN(c2cc(OCCN3C(=O)CCC3=O)ncn2)CC1` [CBK083313T], the figure is 138.158%; as for `CC(C)(C)C1=CC2=NC3(CCC3)C3C[C@@H](O)[C@@H](O)[C@]3(COCc3ccccc3)N2O1` (some centres unmarked) [CBK303260], 166.377%. As for `CCCC/C=C/c1cnc(N)c(-c2cccc(N)c2)n1` [CBK063954], the “% of control remaining” value is 163.948%. As for `CC(C)Nc1nccnc1Sc1cccs1` [CBK089490], the figure is 87.7725%; as for `c1ccc(CN2CC[C@H](c3nc4ncccc4[nH]3)C2)cc1` [CBK289383], 106.224%. As for `Cc1cc(/C=C2\NC(=O)NC2=O)c(C)n1-c1ccc(OCc2ccccc2F)cc1` [CBK264842], the figure is 100%. In the case of `CN(Cc1nc(-c2ccccc2)no1)C(=O)C1CC2(CCNCC2)CN1` (centres unmarked) [CBK306585], the “% of control remaining” value is 101.422%. As for `O=C(O)c1nnn(-c2ccccc2)c1-c1ccncc1` [CBK288041], the figure is 124.148%.

As for `CN(C)C(CNC(=O)Nc1cccc(C(=O)NC2CC2)c1)c1cccs1` (centres unmarked) [CBK305565], the “% of control remaining” value is 105.059%. As to `COc1ccc(Cn2nc(-c3nc(C)no3)c3ccccc32)cc1` [CBK105834], the “% of control remaining” value turned out to be 87.1616%.
